Source: PubChem BioAssay AID192 (DTP/NCI, 2004)
The list does not hold the whole screen: it gathers tests that were run many times, whatever their T/C, doses with no T/C, and many T/C values between a quarter and a half above the control. Further doses and runs are listed elsewhere. T/C is the treated group as % of the vehicle group. Some doses have a count of surviving animals in place of a T/C: the source holds a T/C of zero for them, seemingly a mark for toxic or unscored doses. Some survivor counts are full or nearly so, which does not show that the dose was tolerated: survival well below the control is almost never listed, so the zero probably covers shortened survival too. Survivors were counted at the toxicity check, usually on the fifth day, unless a day is given; later deaths do not show. Schedules are NCI's codes, taken here to give the interval after Q, in days (D) or hours (H), and the number of doses after X. Where survival is the endpoint, this PubChem deposit counts one and a half times the control or more as active, and values a quarter to a half above the control carry no call in these data; other NCI protocols may use other cut-offs.

Test system: BDF1 mice, B16 melanoma ip, median survival T/C
Experiment: NCI In Vivo Anticancer Drug Screen. Data for tumor model B16 Melanoma (intraperitoneal) in B6D2F1 (BDF1) mice
Settings: T/C endpoint: median survival time, higher T/C = longer survival
How it was run: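 Read-out: survival or tumor size, given as treated/control ratio. Controls received vehicle only; animals bore transplantable tumors.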

[1] = dose: 200.0 mg/kg/injection, schedule: Q04DX003 (ip), vehicle: Klucel (hydroxypropylcellulose) (HPC)
[2] = dose: 400.0 mg/kg/injection, schedule: Q01DX009 (ip), vehicle: Klucel (hydroxypropylcellulose) (HPC)
[3] = dose: 100.0 mg/kg/injection, schedule: Q01DX009 (ip), vehicle: saline with Tween-80
[4] = dose: 200.0 mg/kg/injection, schedule: Q01DX009 (ip), vehicle: saline with Tween-80
[5] = dose: 400.0 mg/kg/injection, schedule: Q01DX009 (ip), vehicle: saline with Tween-80
[6] = dose: 100.0 mg/kg/injection, schedule: Q01DX009 (ip), vehicle: Klucel (hydroxypropylcellulose) (HPC)
[7] = dose: 200.0 mg/kg/injection, schedule: Q01DX009 (ip), vehicle: Klucel (hydroxypropylcellulose) (HPC)

With Cc1cc(C)c(NC(=O)Nc2ccccc2C)c(C)c1 the survivor count [1] was 10 of 10 and the survivor count (dose: 400.0 mg/kg/injection, schedule: Q04DX003 (ip), vehicle: Klucel (hydroxypropylcellulose) (HPC)) was 9 of 10.
For O=S(=O)(O)CNc1cc(Cl)cc(Cl)c1, the survivor count [2] was 10 of 10.
With Cc1c(N)nc([C@H](CC(N)=O)NC[C@H](N)C(N)=O)nc1C(=O)N[C@H](C(=O)N[C@H](C)[C@@H](O)CC(=O)N[C@H](C(=O)NC(O[C@@H]1O[C@@H](C)[C@@H](N)[C@@H](O)[C@H]1O)C(O)c1nc(-c2nc(C(=O)NCCCCN)cs2)cs1)[C@@H](C)O)[C@@H](O[C@@H]1O[C@@H](CO)[C@@H](O)[C@H](O)[C@@H]1O[C@H]1O[C@H](CO)[C@@H](O)[C@H](OC(N)=O)[C@@H]1O)c1c[nH]cn1 (stereo partly drawn) the T/C (dose: 0.2 mg/kg/injection, schedule: Q01DX009 (ip), vehicle: saline) was 135 % of control and the T/C (dose: 0.4 mg/kg/injection, schedule: Q01DX009 (ip), vehicle: saline) was 147 % of control.
With Cc1ccc(C(=N)c2ccccc2Cc2cccc3ccccc23)c(C)c1 the survivor count (dose: 6.25 mg/kg/injection, schedule: Q01DX009 (ip), vehicle: saline with Tween-80) was 10 of 10, the survivor count (dose: 12.5 mg/kg/injection, schedule: Q01DX009 (ip), vehicle: saline with Tween-80) was 10 of 10 and the survivor count (dose: 25.0 mg/kg/injection, schedule: Q01DX009 (ip), vehicle: saline with Tween-80) was 10 of 10. For the same molecule, the survivor count (dose: 50.0 mg/kg/injection, schedule: Q01DX009 (ip), vehicle: saline with Tween-80) was 10 of 10, the survivor count [3] was 10 of 10 and the survivor count [4] was 10 of 10. For the same molecule, the survivor count [5] was 9 of 10.
For CN1CCC(=C2c3ccccc3C(O)c3ccccc32)CC1 (stereo not drawn), the survivor count [6] was 0 of 10, the survivor count [7] was 0 of 10 and the survivor count [2] was 0 of 10.
In the case of Clc1ccc2c(c1)/C(=C/c1cccnc1)c1cc(Cl)cc(Cl)c1-2, the survivor count [3] is reported as 6 of 6, the survivor count [4] is reported as 6 of 6 and the survivor count [5] is reported as 6 of 6.
COc1ccc2c(c1)C(OC)C1c3c(cc4c(c3-2)OCO4)CCN1C (stereo not drawn) was tested, and the T/C (dose: 0.5 mg/kg/injection, schedule: Q01DX009 (ip), vehicle: acid diluted with saline) was 127 % of control and the survivor count (dose: 4.0 mg/kg/injection, schedule: Q01DX009 (ip), vehicle: acid diluted with saline) was 9 of 10.
With Cc1cccc(NC(=O)Nc2ccccc2Cl)c1C the survivor count [6] was 10 of 10, the survivor count [7] was 10 of 10 and the survivor count [2] was 10 of 10.
For CCCCCCCCCCCCCCCCOc1ccccc1C(C)=O, the survivor count [3] was 10 of 10 and the survivor count [4] was 10 of 10.
With O=C1c2ccccc2C(Cl)=C(Cl)C1(Cl)Cl the survivor count (dose: 50.0 mg/kg/injection, schedule: Q04DX003 (ip), vehicle: Klucel (hydroxypropylcellulose) (HPC)) was 10 of 10, the survivor count (dose: 100.0 mg/kg/injection, schedule: Q04DX003 (ip), vehicle: Klucel (hydroxypropylcellulose) (HPC)) was 10 of 10 and the survivor count [1] was 9 of 10.
For O=C(CBr)c1ccc(F)cc1, the survivor count (dose: 25.0 mg/kg/injection, schedule: Q01DX009 (ip), vehicle: Klucel (hydroxypropylcellulose) (HPC)) was 4 of 10.
O=C(Nc1nncs1)c1ccncc1 was tested, and the survivor count [5] was 7 of 10.
CCC[N+](CCC)=c1ccc2nc3c(C)cc(N(CC)CC)cc3sc-2c1 was tested, and the survivor count (dose: 1.25 mg/kg/injection, schedule: Q01DX009 (ip), vehicle: saline with Tween-80) was 5 of 6, the survivor count (dose: 2.5 mg/kg/injection, schedule: Q01DX009 (ip), vehicle: saline with Tween-80) was 6 of 6 and the survivor count (dose: 5.0 mg/kg/injection, schedule: Q01DX009 (ip), vehicle: saline with Tween-80) was 6 of 6.
